Consider one molecule from paper PMC11626941, “FBLN7 mediates vascular smooth muscle cell phenotype switching and vascular remodeling in hypertension” (Theranostics, 2024).

No constants are given. Whether binding was seen depends on the method and setting. Binding seen in cells or lysates may run through a third protein. Here binding means that the protein was enriched with, or labelled near, the bait; the list need not be complete. Sequences can lack the tags named with a protein.

In this assay the target is T1, Flag-FBLN7 (fibulin-7) expressed from recombinant adenovirus (UniProt Q501P1).
T1 sequence: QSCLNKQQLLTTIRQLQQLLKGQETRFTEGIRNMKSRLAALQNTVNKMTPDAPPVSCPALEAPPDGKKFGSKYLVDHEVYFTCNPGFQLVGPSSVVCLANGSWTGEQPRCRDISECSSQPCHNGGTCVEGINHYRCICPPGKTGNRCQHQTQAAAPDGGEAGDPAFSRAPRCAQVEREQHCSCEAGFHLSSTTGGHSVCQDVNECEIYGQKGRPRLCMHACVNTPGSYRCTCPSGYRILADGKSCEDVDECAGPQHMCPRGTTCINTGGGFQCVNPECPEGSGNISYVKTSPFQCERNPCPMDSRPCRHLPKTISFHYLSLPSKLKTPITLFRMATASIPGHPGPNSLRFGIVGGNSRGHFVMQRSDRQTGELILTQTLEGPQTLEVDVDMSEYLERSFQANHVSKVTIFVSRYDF
As to the kind of experiment: affinity purification with mass spectrometry; VSMCs transfected with Flag-FBLN7 adenovirus; immunoprecipitation with Flag antibody; LC-MS/MS.

B1: Flag-tagged full-length mouse SDC4 (receptor, UniProt O35988 24-198, looked up)
chain: ESIRETEVIDPQDLLEGRYFSGALPDDEDAGGSDDFELSGSGDLDDTEEPRPFPEVIEPLVPLDNHIPENAQPGIRVPSEPKELEENEVIPKRAPSDVGDDMSNKVSMSSTAQGSNIFERTEVLAALIVGGVVGILFAVFLILLLVYRMKKKDEGSYDLGKKPIYKKAPTNEFYA
notes: Plasmids provided by GenePharma; Seen as monomer, dimer and tetramer bands on non-reducing blots; also called Flag-SDC4; Flag (SDC4); source: HEK293T, transfected (pcDNA 3.1), in lysate; not shown: Flag, C-terminal, kept
Consider B1, for which the binding entry is given as “binds”.
